# Experimental data as given in article PMC8531303.
# The chains behind the UniProt entries cited, without tags or fusion partners. Where a name states a change or a piece, a line headed by the entry shows the natural chain unless it says otherwise. Residues count along the entry.
# UniProt O00206: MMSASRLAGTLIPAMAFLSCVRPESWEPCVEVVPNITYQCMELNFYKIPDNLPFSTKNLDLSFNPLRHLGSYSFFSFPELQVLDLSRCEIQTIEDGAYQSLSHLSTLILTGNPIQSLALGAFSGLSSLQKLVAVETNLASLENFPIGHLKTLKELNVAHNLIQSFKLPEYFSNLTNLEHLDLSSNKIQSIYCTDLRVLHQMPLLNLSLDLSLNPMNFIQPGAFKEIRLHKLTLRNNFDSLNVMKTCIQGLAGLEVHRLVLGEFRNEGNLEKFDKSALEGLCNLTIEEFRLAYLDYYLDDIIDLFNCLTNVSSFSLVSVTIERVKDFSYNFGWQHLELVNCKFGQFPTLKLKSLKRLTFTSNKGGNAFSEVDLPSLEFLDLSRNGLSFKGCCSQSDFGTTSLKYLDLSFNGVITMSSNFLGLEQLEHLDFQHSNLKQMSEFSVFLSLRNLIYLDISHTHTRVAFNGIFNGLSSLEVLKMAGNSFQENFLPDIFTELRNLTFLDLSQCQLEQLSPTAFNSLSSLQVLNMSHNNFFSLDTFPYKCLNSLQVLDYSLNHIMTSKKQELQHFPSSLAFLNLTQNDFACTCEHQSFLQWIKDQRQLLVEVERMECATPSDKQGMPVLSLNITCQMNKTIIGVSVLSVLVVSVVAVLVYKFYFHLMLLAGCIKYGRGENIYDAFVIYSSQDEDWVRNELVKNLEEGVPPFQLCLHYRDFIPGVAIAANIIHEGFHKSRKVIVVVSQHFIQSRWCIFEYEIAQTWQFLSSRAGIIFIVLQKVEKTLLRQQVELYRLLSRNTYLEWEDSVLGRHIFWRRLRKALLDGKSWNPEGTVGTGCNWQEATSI
# GST-TLR4-4 (674-839 aa): residues 674-839 of O00206
# UniProt Q9QUK6, residues 26-835: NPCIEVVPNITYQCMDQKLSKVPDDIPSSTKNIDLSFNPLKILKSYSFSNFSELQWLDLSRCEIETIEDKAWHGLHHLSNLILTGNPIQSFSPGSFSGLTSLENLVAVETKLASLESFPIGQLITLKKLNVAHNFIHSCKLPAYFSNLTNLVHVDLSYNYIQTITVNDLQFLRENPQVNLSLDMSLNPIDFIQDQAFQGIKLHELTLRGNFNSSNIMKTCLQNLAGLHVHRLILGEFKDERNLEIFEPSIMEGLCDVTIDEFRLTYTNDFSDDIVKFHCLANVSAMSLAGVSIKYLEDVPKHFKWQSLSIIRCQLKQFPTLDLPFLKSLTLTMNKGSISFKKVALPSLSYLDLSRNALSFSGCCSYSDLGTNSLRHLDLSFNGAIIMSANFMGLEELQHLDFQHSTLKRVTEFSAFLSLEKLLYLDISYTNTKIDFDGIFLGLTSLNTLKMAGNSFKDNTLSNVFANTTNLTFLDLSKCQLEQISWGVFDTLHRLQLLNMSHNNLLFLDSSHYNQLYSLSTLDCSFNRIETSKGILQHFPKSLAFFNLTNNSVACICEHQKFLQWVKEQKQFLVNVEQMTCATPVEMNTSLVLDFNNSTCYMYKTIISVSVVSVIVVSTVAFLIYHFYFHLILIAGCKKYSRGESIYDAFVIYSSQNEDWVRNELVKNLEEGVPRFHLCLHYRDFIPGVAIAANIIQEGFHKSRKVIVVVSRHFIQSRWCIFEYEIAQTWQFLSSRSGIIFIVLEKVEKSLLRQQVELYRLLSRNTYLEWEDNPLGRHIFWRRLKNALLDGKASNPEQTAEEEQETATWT
# These are yes or no findings as the source states them, for the method shown. For some assays here: In cells and extracts the contact can be indirect. Some binding calls cover weakened binding; strength is not graded here. For some assays here: Where a sequence is shown, tags or fusion partners need not be part of it.
# T1: 3×FLAG-NOC4L (human NOC4L in the PC2AOE-3×FLAG vector) (human) (UniProt Q9BVI4)
# T1 sequence: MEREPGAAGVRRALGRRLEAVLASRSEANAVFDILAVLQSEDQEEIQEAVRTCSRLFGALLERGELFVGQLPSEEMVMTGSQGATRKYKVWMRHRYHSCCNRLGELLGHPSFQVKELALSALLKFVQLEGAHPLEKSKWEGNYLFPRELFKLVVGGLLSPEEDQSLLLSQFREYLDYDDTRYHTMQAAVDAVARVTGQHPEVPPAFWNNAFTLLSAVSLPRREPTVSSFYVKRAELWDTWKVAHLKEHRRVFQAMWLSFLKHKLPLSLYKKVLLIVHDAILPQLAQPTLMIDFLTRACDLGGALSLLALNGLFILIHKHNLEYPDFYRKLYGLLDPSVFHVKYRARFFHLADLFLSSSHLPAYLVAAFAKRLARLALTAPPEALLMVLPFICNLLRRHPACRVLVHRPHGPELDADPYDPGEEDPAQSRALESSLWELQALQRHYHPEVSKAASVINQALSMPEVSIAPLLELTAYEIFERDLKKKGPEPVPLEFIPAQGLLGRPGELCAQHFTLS
# T2: endogenous NOC4L of HeLa cells (human (endogenous in HeLa)) (UniProt Q9BVI4)
# T2 sequence: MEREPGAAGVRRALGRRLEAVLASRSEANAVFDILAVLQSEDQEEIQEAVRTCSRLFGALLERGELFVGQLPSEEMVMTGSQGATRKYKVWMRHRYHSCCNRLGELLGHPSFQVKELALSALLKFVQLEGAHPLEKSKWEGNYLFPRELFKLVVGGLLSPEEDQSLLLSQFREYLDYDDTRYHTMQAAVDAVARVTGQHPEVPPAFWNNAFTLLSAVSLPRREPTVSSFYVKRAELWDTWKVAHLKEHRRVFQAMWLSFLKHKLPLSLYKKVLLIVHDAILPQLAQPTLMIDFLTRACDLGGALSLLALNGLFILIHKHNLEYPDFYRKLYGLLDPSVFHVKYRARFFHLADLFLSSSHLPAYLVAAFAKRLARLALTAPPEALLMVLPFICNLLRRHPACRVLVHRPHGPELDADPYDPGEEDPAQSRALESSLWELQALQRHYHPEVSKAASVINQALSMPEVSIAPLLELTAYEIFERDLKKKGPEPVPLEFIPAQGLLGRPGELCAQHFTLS
# T3: endogenous mouse Noc4l (mouse (endogenous in RAW264.7, BMDMs and PMs)) (UniProt Q8BHY2)
# T3 sequence: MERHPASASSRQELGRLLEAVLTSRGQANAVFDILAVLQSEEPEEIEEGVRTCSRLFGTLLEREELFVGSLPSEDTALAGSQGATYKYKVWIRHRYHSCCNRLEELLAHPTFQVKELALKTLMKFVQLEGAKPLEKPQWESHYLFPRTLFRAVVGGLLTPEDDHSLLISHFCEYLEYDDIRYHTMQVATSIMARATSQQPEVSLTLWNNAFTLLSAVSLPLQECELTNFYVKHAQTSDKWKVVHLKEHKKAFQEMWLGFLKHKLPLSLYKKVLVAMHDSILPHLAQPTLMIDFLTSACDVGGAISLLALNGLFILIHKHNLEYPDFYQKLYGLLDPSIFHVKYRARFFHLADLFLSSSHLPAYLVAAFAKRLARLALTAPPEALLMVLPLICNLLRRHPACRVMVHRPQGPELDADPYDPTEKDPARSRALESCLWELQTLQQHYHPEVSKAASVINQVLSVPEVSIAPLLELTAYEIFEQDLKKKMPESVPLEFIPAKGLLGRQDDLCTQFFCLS
# What was measured:
# [1] = molecular target: T1, 3×FLAG-NOC4L (human NOC4L in the PC2AOE-3×FLAG vector) (human); assay: co-IP; HeLa cells co-transfected with PC2AOE-3×FLAG-NOC4L and pEGFP-TLR4, 48 h; lysis in 10 mM Tris-HCl pH 7.8, 0.5% NP-40, 150 mM NaCl, 1 mM EDTA; precipitated with anti-FLAG M2 magnetic beads; blots for FLAG and GFP
# [2] = molecular target: T2, endogenous NOC4L of HeLa cells (human (endogenous in HeLa)); assay: co-IP; endogenous proteins in HeLa cells (Supplementary Fig. 5g)
# [3] = molecular target: T3, endogenous mouse Noc4l (mouse (endogenous in RAW264.7, BMDMs and PMs)); assay: proximity ligation; Duolink PLA on methanol-fixed peritoneal macrophages of Noc4l^fl/fl, Noc4l^LKO, Noc4l^LOE, WT and TLR4 mutant mice; rabbit anti-TLR4 and mouse anti-Noc4l (3L7) antibodies; signal only if closer than 40 nm
# [4] = molecular target: T3, endogenous mouse Noc4l (mouse (endogenous in RAW264.7, BMDMs and PMs)); assay: co-IP; endogenous proteins in lysates of RAW264.7 cells (untreated or stimulated with LPS 200 ng/mL) and of BMDMs from Noc4l^fl/fl mice; precipitated with anti-NOC4L (6 R) or rIgG overnight at 4 °C, protein A/G; blots for TLR4 and Noc4l
# [5] = molecular target: GST-TLR4-4 (674-839 aa) (human) (UniProt O00206); assay: pull-down; purified GST-TLR4 truncations and purified Flag-NOC4L-His incubated with Glutathione Sepharose 4B (prepared with 0.2% BSA in PBS) overnight at 4 °C, washed with PBS; NOC4L detected by Western blot with anti-Flag antibody; both purified
molecule,measurement,setting,value
EGFP–TLR4 (human TLR4 in pEGFP-C1) (from UniProt O00206 24-839) (receptor),binding,[1],binds
endogenous TLR4 of HeLa cells (from UniProt O00206 24-839) (receptor),binding,[2],binds
endogenous mouse TLR4 (from UniProt Q9QUK6 26-835) (receptor),binding,[3],binds
same,binding,[4],binds
"full-length Flag-NOC4L-His (protein, UniProt Q9BVI4 1-516) MEREPGAAGVRRALGRRLEAVLASRSEANAVFDILAVLQSEDQEEIQEAVRTCSRLFGALLERGELFVGQLPSEEMVMTGSQGATRKYKVWMRHRYHSCCNRLGELLGHPSFQVKELALSALLKFVQLEGAHPLEKSKWEGNYLFPRELFKLVVGGLLSPEEDQSLLLSQFREYLDYDDTRYHTMQAAVDAVARVTGQHPEVPPAFWNNAFTLLSAVSLPRREPTVSSFYVKRAELWDTWKVAHLKEHRRVFQAMWLSFLKHKLPLSLYKKVLLIVHDAILPQLAQPTLMIDFLTRACDLGGALSLLALNGLFILIHKHNLEYPDFYRKLYGLLDPSVFHVKYRARFFHLADLFLSSSHLPAYLVAAFAKRLARLALTAPPEALLMVLPFICNLLRRHPACRVLVHRPHGPELDADPYDPGEEDPAQSRALESSLWELQALQRHYHPEVSKAASVINQALSMPEVSIAPLLELTAYEIFERDLKKKGPEPVPLEFIPAQGLLGRPGELCAQHFTLS",binding,[5],binds
